Results are given in words; binding and its absence hold for the method and conditions named.
Biological target: haloalkane dehalogenase DhaA115 (Rhodococcus rhodochrous) (UniProt P0A3G2)
Test: SAXS; DhaA115 in solution at 8.5, 6.3, 4.3 and 2.2 mg ml^-1, 293 K, 41 mM K2HPO4, 9 mM KH2PO4, pH 7.5; curves of the concentration series merged; fitted against the crystal monomer (chi^2 = 1.25) and the crystal dimer (chi^2 = 50.3); both purified

Substance: haloalkane dehalogenase DhaA115 (from UniProt P0A3G2 1-293) (enzyme)
- binding: no binding (tested: 8.5, 6.3, 4.3 and 2.2 mg ml^-1)

From PMC8162949
